Assay results published in patent publication US20170362330A1.

molecular target: cynomolgus monkey CD46 (cynomolgus monkey); test: FACS on CHO cells transfected with cynomolgus monkey CD46 (panel CHO-cyno CD46)

Row | binding | Binder
1 | binds | YS5 (antibody, V domains shown) VH: QVQLVQSGGGVVQPGRSLRLACAASGLTVNNYAMHWVRQAPGKGLEWVAVISYDGNNKYYADSVKGRFTISRDNSKNTLYLQMNSLRAEDTAVYYCAKGGGYFDLWGRGTLVTVSS VL: QSVLTQPPSVSGAPGQRVTISCTGSSSNIGAGYDVHWYQQLPGTAPKLLIYGNNNRPSGVPDRFSGSKSGTSASLAITGLQAEDEADYYCSSYTSGTWLFGGGTKLTVL

molecular target: cynomolgus monkey CD46 (cynomolgus monkey); test: FACS on CHO cells transfected with cynomolgus monkey CD46

Row | Binder | binding
2 | YS12 (antibody, V domains shown) VH: QVQLVESGGGVVQPGRSLRLSCAASGFTFSTYGMHWVRQAPGKGLEWLSFISYDGDEKYYADSVKGRFTISRDNSKNTLYLQMNSLRAEDTAVYWCAKASGYGMGILDYWGQGTLVTVSS VL: SSELTQDPAVSVALGQTVRITCQGDSLRSYYVSWFQQKPGQAPVFVMYGQNNRPSGISERFSGSSSGNTASLIITGAQAEDEADYYCHSRDSSGTHLRVFGGGTKLTVL | binds
3 | YS4 (antibody, V domains shown) VH: QVQLQESGGGLVQPGGSLRLSCAASGFTFSNYAMSWVRQAPGKGLEWVSTISGSGSSTFYVDSVKGRFTISRDNSKNTLYLQMNSLRAEDTAVYYCAQGLYSSGWANWFDPRGQGTLVTVSS VL: KIVLTQSPSSLSASVGDTVTIACRASRDIRNDLAWYQQKPGKAPKLLIYGASSLQSGVPSRFSGSGSGTEFILTISSLQPEDFATYYCHRLNSYPLTFGGGTKVDIK | binds
4 | YS1 (antibody, V domains shown) VH: EVQLVESGGGLVQPGGSLRLSCAASGFTFSDYYMSWIRQAPGKGLEWVSYISSSGSTIYYADSVKGRFTISRDNSKNTLYLQMNSLRAEDTAVYYCARDYGRIAAAGRHYWGQGTLVTVSS VL: SSELTQDPAVSVALGQTVRITCQGDTLSTYYANWYQQKPGQAPVLVIYGKNNRPSGIPDRFSGSSSGNTASLTITGAQAEDEADYYCHSRDISGNYLFASGTKLTVL | binds
5 | UA8kappa (antibody, V domains shown) VH: EVQLVESGGGVVQPGRSLRLSCAASGFTFSSFGMHWVRRAPGKGLEWVAVISYDGSNQYYADSVKGRFTISRDNSKNTLYLQMNSLRAEDTAVYYCGSRPGGGYASGSTVAYWGQGTLVTVSS VL: NIQMTQSPSSLSASVGDRVTITCRAGQPISTYVNWYQHKPGKAPKLLIYGASNLQSGVPSRFSGGGSATDFTLTISSLQPEDFATYYCQQSYSSLLTFGDGTKVEIK | binds
6 | SB1HGNY (antibody, V domains shown) VH: QVQLQQSGGGVVQPGRSLRLSCAASGFTFSSYAMHWVRQAPGKGLEWVAFIRSDGSKKYYADSVKGRFTISRDNSKNTLYLQMNSLRAEDTAVYYCARHGNYFDSWGQGTLVTVSS VL: DIQMTQSPSFLSASVGDRVTITCRASQGISSYLAWYQQKPGKAPKLLIYAASTLQSGVPSSFSGSGSGTEFTLTISSLQPEDFATYYCQQLASYPLTFGGGTKVDIK | binds
7 | YS5 (antibody, V domains shown) VH: QVQLVQSGGGVVQPGRSLRLACAASGLTVNNYAMHWVRQAPGKGLEWVAVISYDGNNKYYADSVKGRFTISRDNSKNTLYLQMNSLRAEDTAVYYCAKGGGYFDLWGRGTLVTVSS VL: QSVLTQPPSVSGAPGQRVTISCTGSSSNIGAGYDVHWYQQLPGTAPKLLIYGNNNRPSGVPDRFSGSKSGTSASLAITGLQAEDEADYYCSSYTSGTWLFGGGTKLTVL | binds
8 | YS5F (antibody, V domains shown) VH: QVQLVQSGGGVVQPGRSLRLACAASGFTVNNYAMHWVRQAPGKGLEWVAVISYDGNNKYYADSVKGRFTISRDNSKNTLYLQMNSLRAEDTAVYYCAKGGGYFDLWGRGTLVTVSS VL: QSVLTQPPSVSGAPGQRVTISCTGSSSNIGAGYDVHWYQQLPGTAPKLLIYGNNNRPSGVPDRFSGSKSGTSASLAITGLQAEDEADYYCSSYTSGTWLFGGGTKLTVL | binds
9 | YS7 (antibody, V domains shown) VH: QVQLVQSGGGVVQPGRSLRLSCAASGFTFSSYAMHWVRQAPGKGLEWVAVISYDGSNKYYADSVKGRFTISRDTSTNTLYLQMNSLRADDTAVYYCGRESSGSPGVWGQGTTVTVSS VL: SYVLTQDPAVSVALGQTVRITCQGDSLRSYYASWYQQKPGQAPVLVIYGKNNRPSGIPDRFSGSSSGNTASLTITGAQAEDEADYYCNSRDSSGNQFGGGTKLTVL | binds

Continued, values first:

Row | binding | Binder
10 | binds | YS10 (antibody, V domains shown) VH: QVQLQESGGGLVQPGGSLRLSCAASGFTFSSYAMSWVRQAPGKGLEWVSAISGSGGSTYYADSVKGRFTISRDNSKNTLYMQMNSLRAEDTAVYYCAKDRYYYGSGKDAFDIWGRGTMVTVSS VL: QSVLTQPASVSGSPGQSITISCTGTGSDVGSYNYVSWYQQNPGKAPKLMIYEVSNRPSGVSNRFSGSKSGNTASLTISGLQAEDEADYYCSSYTTSSTLVFGGGTKVTVL
11 | binds | 3G7RY (aka 3G8) (antibody, V domains shown) VH: EVQLVESGGGLVQPGGSLRLSCAASGFTFSDYYMSWIRQAPGKGLEWVSYISSSGSTIYYADSVKGRFTISRDNSKNTLYLQMNSLRAEDTAVYYCARDYGRIAAAGRRYWGQGTLVTVSS VL: QSALTQPPSASATPGQRVTISCSGRTSNIGSNHVYWYQQLPGTAPKLLIYRNNQRPSGVPDRFSGSKSGTSASLAISGLRSEDEADYYCATWDDSLSGEVFGGGTKLTVL
12 | binds | YS6 (antibody, V domains shown) VH: QVQLQESGGGVVRPGGSLRLSCAASGFTFSDYYMSWIRQAPGKGLEWVSYISSSGSTIYYADSVKGRFTISRDNSKNTLYLQMNSLRAEDTAVYYCARDYGRIAAAGRHYWGQGTLVTVSS VL: SSELTQDPAVSVALGQTVRITCQGDSLRSYYASWYQQKPGQAPVLVIYGKNNRPSGIPDRFSGSSSGNTASLTITGAQAEDEADYYCNSRDSSGTHLEVFGGGTKVTVL
13 | binds | 3G7NY (antibody, V domains shown) VH: EVQLVESGGGLVQPGGSLRLSCAASGFTFSDYYMSWIRQAPGKGLEWVSYISSSGSTIYYADSVKGRFTISRDNSKNTLYLQMNSLRAEDTAVYYCARDYGRIAAAGRNYWGQGTLVTVSS VL: DIVMTQSPLSLPVTPGEPASISCRSSQSLLHSNGYDYLDWYLQKPGQSPQLLIYLGSNRASGVPDRFSGSGSGTDFTLKISRVETEDVGIYYCMQGLQTPSFGQGTKLEIK
14 | binds | 3G7 (antibody, V domains shown) VH: QVQLQESGGGVVRPGGSLRLSCAASGFTFSDYYMSWIRQAPGKGLEWVSYISSSGSTIYYADSVKGRFTISRDNSKNTLYLQMNSLRAEDTAVYYCARDYGRIAAAGRHYWGQGTLVTVSS VL: SSELTQDPAVSVALGQTVRITCQGDSLRSYYASWYQQKPGQAPVPVIYGKNNRPSGIPDRFSGSSSGNTASLTITGAQAEDEADYYCNSRDSSSTHRGVFGGGTKLTVL
15 | binds | YS11 (antibody, V domains shown) VH: QVQLVESGGGLVQPGGSLGLSCAASGFTFSNYWMSWVRQAPGKGLEWVANVRQDGGQKYYVDSVKGRFTISRDNAKNSLYLQMNSLRTEDTAVYFCVSQRNSGEHDYWGQGTLVTVSS VL: SELTQDPAVSVALGQTVRITCQGDSLRSYYASWYQQKPGQAPVLVIYGENSRPSGIPDRFSGSSSGNTASLTITGAQAEDEADYYCNSWDSSGNHVVFGGGTKLTVL
16 | binds | SB2 (antibody, V domains shown) VH: EVQLVESGGGLVKPGGSLRLSCAASGFTFSDYYMSWIRQAPGKGLEWVSYISSSGSSIYYADSVKGRFTISRDNAKNSLYLQMNSLKAEDTAVYYCARDITDVVGVSFDYWGQGTLVTVSS VL: DIQLTQSPSSLSASVGDRVTITCRASRSISTYLSWYQQKPGKAPKLLIYDASRLQNGVPSRFSGSGSDTDFTLTISSLQPEDFATYFCQQSYNPPWTFGQGTKLEIK
17 | binds | YS9 (antibody, V domains shown) VH: QVQLVESGGGLIQPGGSLRLSCAASGFTVSSNYMSWVRQAPGKGLEWVSVIYTDGSTYYADSVKGRFTISRDNSKNTLYLQMNSLRAEDTAIYYCARDRGTSGYDWAWFDLWGQGTLVTVSS VL: SSELTQDPAVSVALGQTVRITCQGDSLRTYYASWYQQRPGQAPILVLYGKNNRPSGIPDRFSGSSSGNTASLTITGAQAEDEADYYCNSRDSSGNHVVFGGGTKLTVL
18 | binds | YS5v1D (antibody, V domains shown) VH: QVQLVQSGGGVVQPGRSLRLACAASGFTVNNYAMHWVRQAPGKGLEWVAVISYDGNNKYYADSVKGRFTISRDNSKNTLYLQMNSLRAEDTAVYYCAKGGGYFDLWGRGTLVTVSS VL: QSVLTQPPSVSGAPGQRVTISCTGSSSNIGAGYDVHWYQQLPGTAPKLLIYGDNNRPSGVPDRFSGSKSGTSASLAITGLQAEDEADYYCSSYTSGTWLFGGGTKLTVL

molecular target: cynomolgus monkey CD46 (cynomolgus monkey); test: FACS on CHO-cynoCD46 cells, 4 C overnight, MFI against antibody concentration

Row | binding | Binder
19 | binds | YS5 (antibody, V domains shown) VH: QVQLVQSGGGVVQPGRSLRLACAASGLTVNNYAMHWVRQAPGKGLEWVAVISYDGNNKYYADSVKGRFTISRDNSKNTLYLQMNSLRAEDTAVYYCAKGGGYFDLWGRGTLVTVSS VL: QSVLTQPPSVSGAPGQRVTISCTGSSSNIGAGYDVHWYQQLPGTAPKLLIYGNNNRPSGVPDRFSGSKSGTSASLAITGLQAEDEADYYCSSYTSGTWLFGGGTKLTVL

No constants are given. Whether binding was seen depends on the method and setting. Binding calls can cover weak binding; strength is not graded here.
